Test results taken from PubChem BioAssay AID2685 (National Center for Advancing Translational Sciences (NCATS), 2010).
The other results are listed elsewhere or left out. Further columns of the screen follow, without active or inactive calls. The list favours compounds with an active or inconclusive main result. Potencies come from curve fits of mixed quality, noted in brackets.

Experiment: qHTS Assay for Lipid Storage Modulators in Drosophila S3 Cells;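 as to cell number change: cells counted by Cell Tracker Red CMTPX staining in the red channel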
Conditions: BODIPY lipid droplet fluorescence, 18-24 h; for cell number change: measured here: cell count max response, cells fed with added oleic acid
In short: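 Drosophila S3 cells got compounds at several concentrations plus oleic acid (400 uM solution). Laser-scanning cytometry with 488 nm excitation read lipid droplets at 500-530 nm and cells at 575-640 nm. Percent activity was relative to 20 uM Triacsin C.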

[1] = measured here: lipid fluorescence (Fed channel) AC50, cells fed with added oleic acid
[2] = measured here: cell number channel AC50, cells fed with added oleic acid

With `CCN1C(=NCC(C)C)N[C@@H](c2cccc(C(F)(F)F)c2)C(C(=O)OC)=C1C` the cell number change was 18.6% and the AC50 [1] was 2.59 µM [rising, partial curve, poor fit].

With `CN(CCCC(=O)O)S(=O)(=O)c1ccc2c(c1)C(=O)c1cc(S(=O)(=O)N(C)CCCC(=O)O)ccc1-2` the cell number change was 24.9% and the AC50 [1] was 0.58 µM [rising, single point].

In the case of `CCC1(CC)NC(=O)N(CC(=O)OCC(=O)Nc2sccc2C#N)C1=O`, the cell number change is reported as -11% and the AC50 [2] is reported as 4.11 µM [rising, single point].

With `O=S(=O)(NCC(Nc1ccc(Cl)cc1)c1ccccc1)c1ccc(Cl)cc1` (configuration not stated) the cell number change was -67.4%, the AC50 [2] was 18.4 µM [falling, partial curve] and the AC50 [1] was 18.4 µM [falling, partial curve].

With `CC(c1nnc(SCC(=O)N2CC(=O)Nc3ccccc32)n1Cc1ccccc1)N(C)C` (configuration not stated) the cell number change was 19.5% and the AC50 [1] was 2.31 µM [falling, partial curve].

For `O=C(COc1coc(CN2CCc3ccccc3C2)cc1=O)N1CCOCC1`, the AC50 [1] was 6.51 µM [rising, partial curve, poor fit].

In the case of `O=C(NNC(=S)Nc1cccc(C(F)(F)F)c1)c1ccc(Cl)cc1Cl`, the cell number change is reported as -42.3%, the AC50 [2] is reported as 5.8 µM [falling, partial curve, poor fit] and the AC50 [1] is reported as 23.1 µM [falling, single point].

In the case of `O=C(OCc1c(Cl)cccc1Cl)c1ccccn1`, the cell number change is reported as -3.22% and the AC50 [2] is reported as 0.651 µM [falling, single point].

For `OCCNc1ccc(Cl)cc1`, the cell number change was -5.52% and the AC50 [1] was 1.03 µM [falling, full curve, poor fit].

With `COc1cc(/C=N/NC(=S)NCCN2CCOCC2)cc(OC)c1OC` the cell number change was 3.41% and the AC50 [1] was 3.26 µM [rising, full curve, poor fit].

In the case of `O=C(NCCOc1ccc(Cl)cc1)C1CCCCC1`, the cell number change is reported as 24%.

For `O=S(=O)(Nc1ccccc1Cl)c1ccc2[nH]c(=S)oc2c1`, the cell number change was 9.66% and the AC50 [1] was 29.1 µM [rising, single point].

In the case of `O=C(NC1CCCC1)C1=COCCO1`, the cell number change is reported as 17.3% and the AC50 [1] is reported as 20.6 µM [falling, single point].

In the case of `O=C(Nc1ccc(NC(=O)c2ccc([N+](=O)[O-])cc2[N+](=O)[O-])cc1)c1ccco1`, the cell number change is reported as 8.56% and the AC50 [1] is reported as 0.58 µM [rising, single point].

With `Cn1c(=O)c2c(nc(NCc3ccccc3)n2Cc2ccc(F)cc2)n(C)c1=O` the cell number change was -24.6% and the AC50 [1] was 7.31 µM [falling, partial curve].

In the case of `CC(=O)Nc1cccc(-c2cc(C)c3cc4c(cc3n2)OCO4)c1`, the cell number change is reported as -23.6%.

For `C=CCN(C(=O)CCC(=O)Nc1cc(C)on1)C(C(=O)NC(C)(C)C)c1ccc(OC)cc1` (configuration not stated), the cell number change was 6.35%.

In the case of `O=C(COc1ccc(S(=O)(=O)N2CCCC2)cc1)N1CCCCC1`, the cell number change is reported as 3.6% and the AC50 [1] is reported as 2.91 µM [falling, single point].

For `CN1C(=O)[C@H]2[C@@H](c3ccc(F)cc3)N3C(=O)c4ccccc4NC(=O)[C@@]3(C)[C@H]2C1=O`, the cell number change was 29.9%.

With `CCc1ccc(N2C(=O)CC(N(CC3CCCO3)C(=O)/C=C/C(=O)O)C2=O)cc1` (configuration not stated) the cell number change was -30.3%, the AC50 [2] was 5.8 µM [falling, full curve, poor fit] and the AC50 [1] was 0.82 µM [falling, single point].

With `Cn1c(C(=O)OCC(=O)NCCc2ccccc2)cc2sccc21` the cell number change was -12.3% and the AC50 [1] was 3.66 µM [rising, full curve].

For `COc1ccccc1/C=C/C(=O)OCC(=O)c1cc(C)n(C)c1C`, the AC50 [1] was 0.92 µM [falling, full curve].

In the case of `CCc1ccc(NC(=O)CCNS(=O)(=O)c2cccc3nsnc23)cc1`, the cell number change is reported as 43.7%, the AC50 [2] is reported as 29.1 µM [rising, single point] and the AC50 [1] is reported as 29.1 µM [rising, single point].

For `CCCn1c(N)c(N(CCOC)C(=O)CSCC(=O)Nc2cccc(C)c2)c(=O)[nH]c1=O`, the cell number change was -33% and the AC50 [2] was 1.3 µM [falling, full curve].

In the case of `Cc1nc(SCC(=O)N2CCC(C(N)=O)CC2)n[nH]1`, the AC50 [1] is reported as 3.26 µM [rising, single point].

In the case of `CCN(CCCNC(=O)CC(C(=O)N1CCc2ccccc21)n1ccnc1)c1ccccc1` (configuration not stated), the cell number change is reported as -23%, the AC50 [2] is reported as 4.61 µM [falling, full curve, poor fit] and the AC50 [1] is reported as 0.58 µM [falling, single point].

In the case of `COc1ccc(CNC(=O)CCOc2ccc(C(C)(C)C)cc2)cc1`, the cell number change is reported as 58.2% and the AC50 [2] is reported as 5.17 µM [rising, partial curve].

With `O=[N+]([O-])c1ccc(-n2nncc2-c2ccc(Cl)cc2)cc1` the AC50 [1] was 0.651 µM [falling, single point].

For `COc1ccc(NS(=O)(=O)c2ccc(-c3n[nH]c(=S)n3Cc3ccccc3)cc2)cc1`, the cell number change was 6.94% and the AC50 [1] was 0.651 µM [rising, full curve].

`COc1cccc(C2CC(c3cccs3)=NN2C(=S)Nc2ccccc2)c1OC` (configuration not stated) showed a cell number change of -29.6%.

With `Cc1cc(C)n(Cc2ccc(Cl)nc2)n1` the cell number change was -26.1% and the AC50 [1] was 0.00517 µM [falling, full curve, poor fit].

With `CN1/C(=C\C(=O)Nc2cccnc2)c2ccccc2CC1(C)C` the cell number change was -31.7%, the AC50 [2] was 29.1 µM [falling, single point] and the AC50 [1] was 25.9 µM [falling, single point].

Compound `CCN1CCN(Cc2ccc(NC(=O)c3cc(NC(=O)c4ccno4)cc(OC)c3)cc2C(F)(F)F)CC1` has a cell number change of -3.76%.

For `O=C(CSc1nnc(COc2ccc(Cl)cc2)n1Cc1ccco1)N1CCNC1=O`, the cell number change was 6% and the AC50 [1] was 0.13 µM [falling, partial curve, poor fit].

In the case of `CC1(C)CC(=O)C2=C(C1)Nc1cc(C(=O)c3ccccc3)ccc1NC2c1ccccn1` (configuration not stated), the AC50 [1] is reported as 16.4 µM [falling, single point].

In the case of `COc1ccc(C(=O)CSc2nnc(NC(=O)C3CC(=O)N(c4cccc(OC)c4)C3)s2)cc1` (configuration not stated), the AC50 [1] is reported as 0.00461 µM [falling, full curve, poor fit].

For `COc1ccc(-c2nn(-c3ccccc3)cc2/C=N/N=C(N)N)cc1OC`, the cell number change was -19.7% and the AC50 [1] was 10.3 µM [falling, partial curve].

`O=C(O)C1CCN(C(=O)c2ccco2)CC1` showed a cell number change of -9.7%.

In the case of `O=[N+]([O-])c1cnc(N2CCCCC2)c([N+](=O)[O-])c1`, the cell number change is reported as -24.6%, the AC50 [2] is reported as 0.651 µM [rising, single point] and the AC50 [1] is reported as 29.1 µM [rising, single point].
